# Test results: PubChem BioAssay AID493014 (National Center for Advancing Translational Sciences (NCATS), 2011)
# The whole screen tested about 340,000 compounds, of which about 170 (0.05%) were called active. The inconclusive results got no clear call from the source; some entries with a clear call stand among them for comparison. Calls come from the whole dose curve; as a rule, active = well fitted inhibition curve with a large enough effect in the signal ratio, with a control signal flat (not every such curve was filed as active); inconclusive = small, poorly fitted or top-dose-only effect, or effect the other way, or a change in a side signal; inactive = flat fitted curve, though single readings scatter; the % refers to the signal ratio. Where the call is inconclusive, the potency comes from a doubtful curve fit.
# Assay: qHTS Assay to Find Inhibitors of Chronic Active B-Cell Receptor Signaling;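 for activity change, negative = inhibition: plate controls were basal doxycycline-induced cells for no effect and cells given 10 µM MG132 for full effect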
# Conditions: ABC-DLBCL IkBa-CBG/CBR reporter, luminescence ratio (green luciferase fused to IkBa over red control in TMD8 lymphoma cells), 4 h; activity change, negative = inhibition: at 46.1 µM (top of the series)
# Summary of the method: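 TMD8 human ABC-DLBCL cells with doxycycline-inducible IκBα–green luciferase fusion and unfused red luciferase, in 0.5% FBS medium; compounds up to 46 uM, 4 h at 37C. Green/red luminescence ratio, filter-overlap corrected, fitted to concentration-response curves.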
# Potency is the fitted concentration of half-maximal effect.
Compound,"activity change, negative = inhibition",Potency
Cc1cccc(N2CCN(C(=O)COCc3cc(-c4ccc5c(c4)OCO5)on3)CC2)c1C,inconclusive: -14.9%,–
COc1ccc(C)cc1S(=O)(=O)Nc1ccc(F)c(Cl)c1,inactive,–
O=C(N/N=C1/CCS(=O)(=O)c2ccc(F)cc21)c1cccnc1,inconclusive: -18%,–
CCCCn1c(NCc2ccccc2NS(=O)(=O)c2ccc(C)cc2)nc2ccccc21,inactive,–
COC(=O)CCC(=O)OC1(C)C(=O)C=C2C=C(C3CC3)N(C3CCCCC3)C=C2C1=O (stereo not drawn),inconclusive: 5.63%,–
CCC1(C)Cc2c(C#N)c(N)sc(=S)c2CO1 (stereo not drawn),inconclusive: 0.878%,–
O=c1ccn(Cc2ccccc2)cc1,inconclusive: 5.96%,–
Cn1ccnc1SCC(=O)Nc1ccc2ccccc2c1,–,"inconclusive: 18.4 µM [falling, single point]"
C=CCOc1ccc(/C=C/C(=O)OCC(=O)NCc2cccs2)cc1,inconclusive: 11.5%,–
O/N=C/c1cccnc1Sc1ccccc1,inactive,–
COc1cccc(/C=C/C(=O)c2ccc3c(c2)OCO3)c1OC,–,"inconclusive: 29.1 µM [falling, single point]"
O=C(NCC(c1cccs1)N1CCOCC1)c1cnc(Cl)c(Cl)c1 (stereo not drawn),inconclusive: 2.03%,–
CCOc1cc(C(=S)N2CCCC2)ccc1OCC(=O)Nc1c(C)cc(C)cc1C,inactive,–
O=C(CSc1nnc2ccccn12)Nc1ncc(Cl)cc1Cl,inconclusive: -3.93%,–
CC1=CCC(C(=O)O)C(C(=O)NC2CCCCC2)C1 (stereo not drawn),inconclusive: -2.93%,–
O=C(NCc1ccccc1)Nc1cc(Cl)ccc1Cl,inconclusive: 2.56%,–
COc1cc(/C=C/c2nc3ccccc3s2)cc(OC)c1O,–,"inconclusive: 15.8 µM [falling, partial curve, poor fit]"
CC(OC(=O)CCOc1ccccc1)C(=O)Nc1ccc(Cl)cn1 (stereo not drawn),inconclusive: -11.6%,–
COc1ccc(C(=O)NC23CC4CC(CC(C4)C2)C3)cc1,inactive,–
CCOC(=O)CC1COCCN1Cc1cn[nH]c1-c1cc(OC)c(OC)c(OC)c1 (stereo not drawn),inconclusive: -2.16%,–
COc1ccccc1N1CCN(C(=S)Nc2cccc(C)c2)CC1,inactive,–
COc1ccccc1NC(=O)CN1C(=O)CCS(=O)(=O)c2ccccc21,–,"inconclusive: 23.1 µM [falling, single point]"
N#Cc1ccsc1NC(=O)COC(=O)C1=NNC(=O)CC1,inconclusive: 2.98%,–
COc1ccc(Cn2c(-c3ccc(Br)cc3)c[n+]3ccccc23)cc1,inconclusive: 10.1%,–
O=C(NC(=S)NCCc1ccccc1)c1ccccc1,–,"inconclusive: 35.5 µM [falling, single point]"
CC(C)CCCCCCNC(=S)Nc1ccc(S(=O)(=O)N2CCOCC2)cc1,–,"inconclusive: 29.1 µM [falling, single point]"
CCn1cc(C(=O)NCCc2ccc(OC)c(OC)c2)c(=O)c2cc(S(=O)(=O)N3CCOCC3)ccc21,inconclusive: 6.97%,–

# Filtered by structure, the entries above containing an aryl methoxy group.
Compound,"activity change, negative = inhibition",Potency
COc1ccc(C)cc1S(=O)(=O)Nc1ccc(F)c(Cl)c1,inactive,–
COc1cccc(/C=C/C(=O)c2ccc3c(c2)OCO3)c1OC,–,"inconclusive: 29.1 µM [falling, single point]"
COc1cc(/C=C/c2nc3ccccc3s2)cc(OC)c1O,–,"inconclusive: 15.8 µM [falling, partial curve, poor fit]"
COc1ccc(C(=O)NC23CC4CC(CC(C4)C2)C3)cc1,inactive,–
CCOC(=O)CC1COCCN1Cc1cn[nH]c1-c1cc(OC)c(OC)c(OC)c1 (stereo not drawn),inconclusive: -2.16%,–
COc1ccccc1N1CCN(C(=S)Nc2cccc(C)c2)CC1,inactive,–
COc1ccccc1NC(=O)CN1C(=O)CCS(=O)(=O)c2ccccc21,–,"inconclusive: 23.1 µM [falling, single point]"
COc1ccc(Cn2c(-c3ccc(Br)cc3)c[n+]3ccccc23)cc1,inconclusive: 10.1%,–
CCn1cc(C(=O)NCCc2ccc(OC)c(OC)c2)c(=O)c2cc(S(=O)(=O)N3CCOCC3)ccc21,inconclusive: 6.97%,–

# (listing goes on)

Compound,"activity change, negative = inhibition",Potency
N#C/C(=C\C=C\c1ccccc1)C(=O)N1CCCC1,–,"inconclusive: 35.5 µM [rising, single point]"
Cc1ccc(-c2cn3cc(C)ccc3n2)cc1,–,"inconclusive: 7.94 µM [falling, partial curve]"
O=S(=O)(c1cccc(NC(=S)N2CCN(c3cccc(Cl)c3)CC2)c1)C(F)F,inconclusive: -1.16%,–
Cc1cccc(-n2nnc(-c3nc(-c4ccccc4)no3)c2N)c1C,–,"inconclusive: 20 µM [falling, single point]"
O=C(CSc1ccccc1)Nc1cccnc1,inconclusive: -1.67%,–
COC(=O)Cc1csc(N)n1,inconclusive: 18.1%,–
CN(C)c1ccc(/C=C/c2ccncc2)cc1,inconclusive: 14.3%,–
CCCCn1c(N)c(N(CC(C)C)C(=O)c2cccc(S(=O)(=O)N3CC(C)OC(C)C3)c2)c(=O)[nH]c1=O (stereo not drawn),inconclusive: 6.36%,–
COc1ccc(C2/C=C\CN(S(=O)(=O)c3ccc4ccccc4c3)CC(=O)N2Cc2ccc(F)cc2)cc1 (stereo not drawn),inconclusive: -2.87%,–
O=C(C(c1ccccc1)c1ccccc1)N1CC[C@@]2(O)CCCC[C@H]2C1,inconclusive: 6.36%,–
O=C(Nc1cccc(Cl)c1)Nc1cc(S(=O)(=O)N2CCCCC2)ccc1Cl,inconclusive: 21.4%,–
O=C(O)c1cccc(CN2C(=O)S/C(=C/c3cccc([N+](=O)[O-])c3)C2=O)c1,inconclusive: -23.4%,–
CC(C)NCC1CCc2cc(CO)c([N+](=O)[O-])cc2N1 (stereo not drawn),–,"inconclusive: 15.8 µM [falling, partial curve, poor fit]"
CCN(Cc1ccncc1)Cc1cn(C)nc1-c1ccc(Oc2ccccc2)cc1,inconclusive: 0.139%,–
COc1cc(C(=O)Nc2scc(-c3ccc(C)cc3)c2C(=O)O)cc(OC)c1OC,inconclusive: 8.35%,–
O=C(CCNC(=O)c1ccco1)Nc1ccc(Cl)cc1,inactive,–
CCn1c(SCC(=O)Nc2ccccc2)nc2ccccc2c1=O,inactive,–
CC(OC(=O)c1cc(=O)[nH]c2ccccc12)C(=O)c1ccccc1 (stereo not drawn),inconclusive: -4.24%,–
COC(=O)C1=C(C)N(CCc2ccc(OC)cc2)C(=O)C1,inconclusive: -7.86%,–
COc1cc2cc(CN(C(=O)NC3CCCCC3)C3CCCC3)c(=O)[nH]c2cc1OC,inconclusive: -4.38%,–
COc1cccc(-c2csc(N3CCN(C(=S)Nc4cccc(Cl)c4)CC3)n2)c1,inconclusive: 2.48%,–
CCC(=O)Nc1ccc(S(=O)(=O)Nc2cccc(C)c2)cc1OC,inactive,–
O=C(COc1ccc(F)cc1)N1CCc2ccccc2C1,–,"inconclusive: 17.8 µM [falling, partial curve]"
C(=C\c1ccccc1)/CSc1nnc(-c2cccnc2)o1,–,"inconclusive: 3.16 µM [falling, partial curve, poor fit]"
C[C@@H](CN1C(=O)C(=O)NC[C@@H]1Cc1ccc(O)cc1)NC(=O)Cc1ccccc1,–,"inconclusive: 14.1 µM [falling, partial curve, poor fit]"
Cc1occc1-c1nnc(SC(C)C(=O)Nc2ccccc2F)o1 (stereo not drawn),–,"inconclusive: 23.1 µM [falling, partial curve]"

# Copied from the list.
# activity change, negative = inhibition with CCOc1cc(C(=S)N2CCCC2)ccc1OCC(=O)Nc1c(C)cc(C)cc1C is entered as inactive
# activity change, negative = inhibition with O=c1ccn(Cc2ccccc2)cc1 is entered as inconclusive: 5.96%
